This is an account of results in the supplement of paper PMC12889115.

Each structure is given as a SMILES string. This is one part of the list. Values are raw readings; no control value is given beside them.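 Primary screen: polymyxin B was added at a level permeabilizing Salmonella outer membranes while sparing inner membranes. DMSO wells, both with and without polymyxin B, established maximum growth. Plate-to-plate variation meant each plate was ranked on its own, and the lowest-OD600 compounds were selected as hits.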

This assay concerns Salmonella enterica serovar Typhimurium SL1344. Briefly: bacterial growth OD600 after 18 h with compound and polymyxin B; higher = more bacterial growth (less inhibition). The following applies: 50 µM, Mueller-Hinton broth.

For `O=C(C1CCC1)N1CCC2(CCCN(CCCc3ccccc3)C2=O)C1` (configuration not stated), the “bacterial growth OD600” value (polymyxin B 1 µg/mL) amounted to 0.778.
Still for that read-out and setting: as for `COCc1noc(-c2ccc(NCCc3cccnc3)nc2)n1`, the figure is 1.02.
The same measure, in the same setting: as for `CN(Cc1cccnc1)c1ccc(C(=O)N2CCCCC2CCn2cccn2)cn1` (configuration not stated), the figure is 0.89; as for `O[C@H]1CC[C@H](Nc2ccc(-c3nc(COc4ccccc4)no3)cn2)CC1`, 0.79; as for `Cc1nc(N2CCCCCCC2)ncc1C(C)NCc1cnn(C)c1C` (configuration not stated), 0.1.
Still for that read-out and setting: as for `Cn1ccnc1CN1CCN(c2ccc(-c3nc(C4CC4)no3)cn2)CC1`, the figure is 1.09.
On to `CCOCCCNC(=O)C1CCN(c2nc(C)c3ccc(S(C)(=O)=O)cc3n2)CC1`, for which the “bacterial growth OD600” value (polymyxin B 0.75 µg/mL) was found to be 0.876.
For `OCC1(Cc2ccccc2)CCCN(Cc2cnn(-c3cccc(Cl)c3)c2)C1` (configuration not stated), the “bacterial growth OD600” value (polymyxin B 1 µg/mL) was 0.644.
In the case of `CO[C@H]1[C@H](NC(=O)COc2ccccc2)c2ccccc2C12CCN(C(=O)CCC(F)(F)F)CC2`, the “bacterial growth OD600” value (polymyxin B 0.75 µg/mL) was found to be 0.673.
Take `COc1cc(CN2CCN(Cc3ccc(OC)c(C)c3C)C(CCO)C2)ccc1F` (configuration not stated): the “bacterial growth OD600” value (polymyxin B 1 µg/mL) amounted to 0.786.
Regarding `COc1ccc(NC(=O)CCC2CCCN(Cc3cccnc3)C2)cc1Cl` (configuration not stated), the “bacterial growth OD600” value (polymyxin B 1 µg/mL) was 0.904.
Same read-out and setting: as for `Cc1ccc(CN(C)Cc2nc(-c3ccccn3)no2)cc1`, the figure is 0.884.
As to `COc1ccc(OC)c(CN2CCOc3ccc(C(O)Cc4ccccc4)cc3C2)c1` (configuration not stated), under “polymyxin B 0.75 µg/mL”, the “bacterial growth OD600” value amounted to 0.808.
Still for that read-out and setting: as for `COCc1ccc(C(=O)N2CCc3[nH]nc(-c4ccccc4F)c3C2)s1`, the figure is 0.756; as for `Cc1ccc(CN2CCOc3ccc(CN4CCN(c5ccc(F)cc5)CC4)cc3C2)o1`, 0.845.
Still for that read-out and setting: for `COc1cccc(OCc2cc(C(=O)NCc3cccc(C)n3)n[nH]2)c1` the value was 0.839.
On to `Cn1cc(CNCc2cccnc2Oc2ccccc2)c(-c2ccccc2)n1`, for which, under “polymyxin B 1 µg/mL”, the “bacterial growth OD600” value was 0.929.
Consider `Cc1nc(N(C)C2CCCCC2)ncc1C(C)NCc1cccc(O)c1` (configuration not stated), for which the “bacterial growth OD600” value (polymyxin B 0.75 µg/mL) is 0.776.
As to `CCOC(=O)CCNC(=O)N1CCCC(CNC(=O)c2cccs2)C1` (configuration not stated), the “bacterial growth OD600” value (polymyxin B 0.75 µg/mL) stood at 0.834.
Take `O=C(Cn1cccn1)NC1CC(=O)N(CCc2cccc(Cl)c2)C1` (configuration not stated): for the setting “polymyxin B 1 µg/mL”, the “bacterial growth OD600” value was found to be 0.978.
For `CC(C)NC(=O)NCc1cccnc1Oc1ccccc1F`, where the note is “polymyxin B 0.75 µg/mL”, the “bacterial growth OD600” value came out at 0.805.
On the same count and under the same terms, for `CCC1CN(CC(=O)NCCCc2cccnc2)Cc2cc(OC)ccc2O1` (configuration not stated) the value was 0.835; for `Cc1nc(N(C)C2CCCCC2)ncc1C(C)NCc1nc(C)c(C)nc1C` (configuration not stated), 0.475; for `CC(C)CCC1(C2CCN(C(=O)/C(F)=C/c3ccccc3)CC2)NC(=O)N(Cc2ccccn2)C1=O` (configuration not stated), 0.001.
The same measure, in the same setting: as for `COc1cc(CC2(CCC(=O)N3CC4(C)CC3CC(C)(C)C4)CCC(=O)N2)ccc1F` (configuration not stated), the figure is 0.953; as for `Cc1nc(CC(=O)NC2CCCc3c2cnn3-c2ccc(F)cc2F)cs1` (configuration not stated), 0.776.
For `O=C(NCc1cccc(Cl)c1)c1cccc(OC2CCN(C(=O)C3CC3)CC2)c1`, where the note is “polymyxin B 1 µg/mL”, the “bacterial growth OD600” value came to 0.796.
As to `CCN(CC1CCCO1)C(=O)C1CCCN(c2nc(C)c3ccc(OC)cc3n2)C1` (configuration not stated), the “bacterial growth OD600” value (polymyxin B 0.75 µg/mL) was determined as 0.637.
With `CCC(=O)N1CCC(C(=O)Nc2cccc(-c3nnc(C)s3)c2)CC1`, the “bacterial growth OD600” value (polymyxin B 1 µg/mL) was determined as 0.876.
As for `O=C(NC1CCCC1)C1CCN(C2CCN(CCCc3ccccc3)CC2)CC1`, the “bacterial growth OD600” value (polymyxin B 0.75 µg/mL) was 0.932.
The same measure, in the same setting: for `COc1ccccc1CN1CCCC(CN(CCN(C)C)C(=O)c2ccco2)C1` (configuration not stated) the value was 0.869; for `O=C(CN1Cc2ccccc2OC(c2ccsc2)C1)NCc1nc(-c2ccccc2)cs1` (configuration not stated), 0.05.
